Results are given in words; binding and its absence hold for the method and conditions named.

This experiment has as its target YgfX (S. oneidensis MR-1). The experiment is described as follows: two-hybrid; bacterial two-hybrid by adenylate cyclase reconstitution (T25 and T18 fusions, Euromedex) in E. coli BTH101; β-galactosidase activity of overnight cultures, compared to negative and positive controls.

B1: YgfY (protein, UniProt Q8EH90 1-82)
chain: MELMNIARVRWACRRGMLELDVLFQPFVDNVYQDLSDEDKVLFIRLLECEDPELFAWFMGHEVCPDPELARMVVQVRGRAAP
In the case of B1, the binding result was “no binding”.

The values above are taken from article PMC8621075.
